Data: PubChem BioAssay AID504834 (National Center for Advancing Translational Sciences (NCATS), 2011)
The whole screen tested about 320,000 compounds, of which about 22,000 (6.9%) were called active. Inconclusive means that the source gave no clear call. Such entries were picked first, then a sample of the others. Calls come from the whole dose curve; as a rule, active = well fitted inhibition curve with a large enough effect; inconclusive = small, poorly fitted or top-dose-only effect, or another doubt; inactive = no such curve, though single readings can be large or run the other way. A potency beside an inconclusive call is a rough fit, not a confirmed value.

Assay: Primary qHTS for delayed death inhibitors of the malarial parasite plastid, 96 hour incubation
Conditions: P. falciparum luciferase reporter growth; series mostly up to 28.7 µM
Outline: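 Erythrocytes infected with luciferase-expressing P. falciparum were dispensed at 2% hematocrit and 0.05% parasitemia (final), then incubated with compounds 96 hours at 37 C in 5% CO2. Luminescence after detection reagent addition reported growth.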
% is set by controls: 0 for no effect and ±100 for the full control effect; potency is the fitted concentration of half-maximal effect.

Row | SMILES | Potency | activity change, negative = inhibition
1 | Cc1oc(-c2ccccc2Cl)nc1CN1CCCCC1c1cccnc1 (stereo not drawn) | inconclusive: 10.4 µM [inhibitor, single point] | –
2 | O=C(CCNS(=O)(=O)c1cccc2nonc12)NCCc1ccc(Cl)cc1 | inconclusive: 0.0029 µM [inhibitor, full curve, poor fit] | –
3 | COC(=O)c1cc2c(ccn2-c2ccc(F)cc2)n1CC(=O)OC(C)C | inconclusive: 13.1 µM [inhibitor, single point] | –
4 | O=C(c1ccco1)N1CCN(c2nc(C3CC3)nc3c2nnn3Cc2ccccc2Cl)CC1 | inactive | –
5 | CCS(=O)(=O)N1CCCC(C(=O)NCCc2ccc(OC)c(OC)c2)C1 (stereo not drawn) | inactive | –
6 | O=C(C1=C[C@@H](c2ccc(C(F)(F)F)cc2)C[C@@H](OCCCCO)O1)N1CCOCC1 | inconclusive: 18.5 µM [inhibitor, single point] | –
7 | COCCCn1c(=N)c(C(=O)NC2CCCCC2)cc2c(=O)n3ccccc3nc21 | inactive | –
8 | O=C(c1cc(COc2ccc(F)cc2Cl)on1)N1CCCCCCC1 | inconclusive: 20.8 µM [inhibitor, partial curve, poor fit] | –
9 | COc1ccc(S(=O)(=O)NCCc2nnc3ccc(SCc4cccnc4)nn23)cc1 | inactive | –
10 | Cc1ccc(CN2CCN(CC(=O)NC(C)c3ccc4c(c3)OCCO4)C2=O)cc1 (stereo not drawn) | inactive | –
11 | COc1cccc(-c2noc(-c3ccc(Cl)nc3)n2)c1 | inactive | –
12 | CCCOC(=O)c1c(N)sc2c1CCC2 | inconclusive: 18.5 µM [inhibitor, single point] | –
13 | COc1ccc(N(C(=O)COc2ccccc2OC)S(=O)(=O)c2ccc(C)cc2)cc1 | inactive | –
14 | Cc1ccc(N=C2S/C(=C/c3cccc(OCC(=O)O)c3)C(=O)N2C)cc1C | inconclusive: 1.85 µM [inhibitor, partial curve, poor fit] | –
15 | O=[N+]([O-])c1cc(S(=O)(=O)Nc2cccc(Cl)c2)ccc1N=Nc1c(O)[nH]c2ccccc12 | inconclusive: 0.928 µM [inhibitor, partial curve, poor fit] | –
16 | CCc1noc(C)c1C(=O)OCC(=O)Nc1cccc(C)c1 | inactive | –
17 | O=S(=O)(Nc1nc2ccccc2nc1Nc1ccc2c(c1)OCO2)c1ccc(F)cc1 | inactive | –
18 | O=C(NCc1cc(C(F)(F)F)cc(C(F)(F)F)c1)C1CC(c2c(Cl)cccc2Cl)=NO1 (stereo not drawn) | inconclusive: 0.465 µM [inhibitor, full curve, poor fit] | –
19 | CC(C)N1CC(C(=O)Nc2ccc(Cl)c([N+](=O)[O-])c2)CC1=O (stereo not drawn) | inconclusive: 14.7 µM [inhibitor, partial curve] | –
20 | C[C@H](NC(=O)C1CCN(S(=O)(=O)c2ccccc2)CC1)C(=O)NCc1ccc(Cl)cc1Cl | inconclusive: 18.5 µM [inhibitor, single point] | –
21 | CC(C)c1ccc(NC(=S)NNC(=O)c2cccs2)cc1 | – | inactive: -11% [at 1.15 µM]
22 | COc1ccc(N2CCN(C(=O)CSc3nc4c(c(=O)n(C)c(=O)n4C)n3C(C)C)CC2)cc1 | inconclusive: 13.1 µM [inhibitor, single point] | –
23 | CN(C)CCN1C(=O)C(O)=C(C(=O)c2cc3ccccc3o2)C1c1ccc(N(C)C)cc1 (stereo not drawn) | active: 9.28 µM | –

Row | SMILES | Potency | activity change, negative = inhibition
24 | CC(=O)c1c(O)cc(C)n(-c2ccc(F)cc2)c1=O | inactive | –
25 | Cc1cccc(NS(=O)(=O)c2cccc3nonc23)c1 | inconclusive: 5.22 µM [inhibitor, partial curve] | –
26 | CCN1CCN(CC(=O)Nc2ccccc2)C(=O)C1=O | inactive | –
27 | COc1ccc(-c2cc(=O)c3ccccc3o2)cc1 | inconclusive: 14.7 µM [inhibitor, single point] | –
28 | COC(=O)c1ccc(N/C(=N/S(=O)(=O)c2ccccc2)c2ccccc2)cc1 | inconclusive: 2.33 µM [inhibitor, full curve, poor fit] | –
29 | CCOc1ccccc1N1CCN(CC(=O)Nc2nnc(CC)s2)CC1 | inconclusive: 0.928 µM [inhibitor, partial curve, poor fit] | –
30 | Cc1nn(Cc2ccccc2)c(Cl)c1C(=O)Nc1ccc(OC(F)(F)F)cc1 | inconclusive: 9.28 µM [inhibitor, partial curve, poor fit] | –
31 | CCOc1ccc(/C(O)=C2/C(=O)C(=O)N(CCCn3ccnc3)C2c2cccs2)cc1Cl (stereo not drawn) | inconclusive: 18.5 µM [inhibitor, single point] | –
32 | Cc1cc(-c2ccccc2C(=O)NC2CCCCC2)on1 | inactive | –
33 | O=C(N/N=C/c1cccnc1)c1ccccc1 | inconclusive: 13.1 µM [inhibitor, partial curve, poor fit] | –
34 | Cc1nc(-c2cc(-c3nc(-c4cc(C(F)(F)F)cc(C(F)(F)F)c4)no3)no2)cs1 | inactive | –
35 | Cc1ccccc1C1C2=C(Nc3[nH]n(-c4ccccc4)c(=O)c31)c1ccccc1C2=O (stereo not drawn) | inconclusive: 10.4 µM [inhibitor, single point] | –
36 | Nn1c(-c2ccccc2)cc(-c2ccccc2)cc1=O | inconclusive: 18.5 µM [inhibitor, single point] | –
37 | COc1ccccc1/C=C/C(=O)NC(=S)Nc1ccccn1 | inconclusive: 18.5 µM [inhibitor, single point] | –
38 | COn1c(SCc2cccc(Cl)c2)nc2ccccc2c1=O | active: 10.4 µM | –
39 | Cc1ccc(S(=O)(=O)N2CCCN(c3nc4cc(C)ccc4cc3C#N)CC2)cc1 | inconclusive: 18.5 µM [inhibitor, single point] | –
40 | Cc1c(-c2ccccc2)[n+](=O)c(-c2ccc(Cl)cc2)c(C)n1[O-] | inconclusive: 18.5 µM [inhibitor, single point] | –
41 | CCOC(=O)C1C(=O)NC(c2ccccc2)=NC1c1ccc(Br)cc1 (stereo not drawn) | inactive | –
42 | Cc1cc(C)c(CN2CCCC(CNC(=O)c3ccc(F)cc3)C2)c(-n2cccn2)c1 (stereo not drawn) | inconclusive: 10.4 µM [inhibitor, single point] | –
43 | O=S1(=O)N=C(N=Nc2c(O)[nH]c3ccccc23)c2ccccc21 | inactive | –
44 | Cc1cc(C)nc(NNC2=CC(=[N+]3CCCCC3)CC(C)(C)C2)n1 | inconclusive: 3.29 µM [inhibitor, partial curve] | –
45 | COC(=O)c1c(N2C(=O)CC(Sc3ccccc3C(=O)O)C2=O)sc2c1CCCC2 (stereo not drawn) | inconclusive: 2.33 µM [inhibitor, full curve, poor fit] | –
46 | CC(C)(C)NC(=O)CN(Cc1cccs1)C(=O)CCN1CCc2ccccc21 | inconclusive: 11.7 µM [inhibitor, single point] | –

Row | SMILES | Potency | activity change, negative = inhibition
47 | O=C(CN1CCN(c2ccccc2F)CC1)c1c[nH]c2ccccc12 | inconclusive: 16.5 µM [inhibitor, single point] | –
48 | COc1ccc(NC(=O)c2c(N)no[n+]2[O-])cc1 | inconclusive: 18.5 µM [inhibitor, single point] | –
49 | O=C(CCNC(=O)c1ccc(Cl)cc1)NCc1ccccc1Cl | inactive | –
50 | Cc1cc(S(=O)(=O)N(Cc2ccc(F)cc2)CC2CCCO2)ccc1-n1cnnn1 (stereo not drawn) | inconclusive: 9.28 µM [inhibitor, partial curve] | –
51 | Cc1ccccc1-c1nc(CN2CCCC2c2ccc(F)cc2)c(C)o1 (stereo not drawn) | inactive | –
52 | CCOc1ccc(S(=O)(=O)N2Cc3ccccc3CC2C(=O)O)cc1 (stereo not drawn) | inactive | –
53 | O=C(Nc1cccc(S(=O)(=O)N2CCOCC2)c1)C1CCCN(C(=O)c2ccc(Cl)cc2)C1 (stereo not drawn) | active: 10.4 µM | –
54 | COC(=O)c1cccc([N+](=O)[O-])c1CS(=O)(=O)c1ccc(C)cc1 | inconclusive: 10.4 µM [inhibitor, single point] | –
55 | COC(=O)c1ccc(NC(=S)NC2CC(C)(C)NC(C)(C)C2)cc1 | inactive | –
56 | CC(C)N(C#N)c1nc(N2CCOCC2)nc(N2CCOCC2)n1 | inconclusive: 9.28 µM [inhibitor, partial curve] | –
57 | CCOC(=O)N1CCN(c2c(NCCN3CCCCC3CC)c(=O)c2=O)CC1 (stereo not drawn) | inconclusive: 13.1 µM [inhibitor, single point] | –
58 | CC(=O)NCCC1CCN(c2nc3nonc3nc2N(C)Cc2ccccc2)CC1 | inconclusive: 18.5 µM [inhibitor, single point] | –
59 | Cc1cc(NS(=O)(=O)c2ccc(NC(=O)C(C)Oc3ccccc3Cl)cc2)no1 (stereo not drawn) | inconclusive: 11.7 µM [inhibitor, single point] | –
60 | CCOC(=O)C1CCCN(C(=O)CCCn2nc(C)n3c(cc4sccc43)c2=O)C1 (stereo not drawn) | active: 2.94 µM | –
61 | O=S(=O)(c1cccc(F)c1)N1CCN(Cc2ccc3c(c2)OCO3)CC1 | inconclusive: 18.5 µM [inhibitor, single point] | –
62 | CCOc1ccc2c(=O)c(-c3ccc4c(c3)OCCCO4)c(C)oc2c1 | inconclusive: 0.0657 µM [inhibitor, full curve, poor fit] | –
63 | CCn1ncc(Br)c1C(=O)Nc1cc(C(=O)OC)ccc1C(=O)OC | inconclusive: 20.8 µM [inhibitor, partial curve, poor fit] | –
64 | COCCN(C(=S)Nc1cc(C)ccc1C)C(C)c1cccnc1 (stereo not drawn) | inconclusive: 8.28 µM [inhibitor, partial curve, poor fit] | –
65 | Cc1ccc(C)c(/C=C2\N=C(c3ccccc3F)OC2=O)c1 | inconclusive: 11.7 µM [inhibitor, single point] | –
66 | Cc1cccc(Cn2nnc3ccccc32)c1O | inconclusive: 13.1 µM [inhibitor, single point] | –
67 | COc1ccc(CNC(=O)C[C@H]2C(=O)N(c3ccccc3)C[C@@H]2Cc2ccccc2)cc1 | inconclusive: 0.586 µM [inhibitor, full curve, poor fit] | –
68 | Cc1cc(NC(=O)CCC(=O)N(CC(=O)NC2CCCC2)c2ccc(C(C)C)cc2)no1 | inconclusive: 0.0023 µM [inhibitor, full curve, poor fit] | –

One compound at a time (already shown).
Cc1cc(S(=O)(=O)N(Cc2ccc(F)cc2)CC2CCCO2)ccc1-n1cnnn1 (stereo not drawn) in the list: Potency: inconclusive: 9.28 µM [inhibitor, partial curve]
CN(C)CCN1C(=O)C(O)=C(C(=O)c2cc3ccccc3o2)C1c1ccc(N(C)C)cc1 (stereo not drawn) in the list: Potency: active: 9.28 µM
